Experimental data reported in US20220305006A1, “COMPOSITIONS AND METHODS FOR THE TREATMENT OF NEUROLOGICAL DISEASES AND DISORDERS” (The Regents of the University of California, priority 2019, published 2022).
For at least one compound, name, drawing or mass did not settle the structure. Non-standard residues stand in square brackets, D forms with d. Residues, ends and D or L forms follow the SMILES beside them. Sta = CC(C)C[C@H](N)[C@@H](O)CC(=O)O

The chains behind the UniProt entries cited, without tags or fusion partners. Residues count along the entry.
UniProt P07339, 65-412: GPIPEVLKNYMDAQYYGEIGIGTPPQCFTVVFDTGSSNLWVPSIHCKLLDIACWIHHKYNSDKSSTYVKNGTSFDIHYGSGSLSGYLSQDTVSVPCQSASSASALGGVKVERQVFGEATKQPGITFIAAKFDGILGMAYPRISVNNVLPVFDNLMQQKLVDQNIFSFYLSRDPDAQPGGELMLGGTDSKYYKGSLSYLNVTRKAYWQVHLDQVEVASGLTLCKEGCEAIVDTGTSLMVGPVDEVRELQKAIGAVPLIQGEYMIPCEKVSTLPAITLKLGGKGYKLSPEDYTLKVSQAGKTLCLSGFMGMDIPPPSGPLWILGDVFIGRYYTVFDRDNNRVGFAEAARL

Molecular target: T1, Recombinant Human Cathepsin D (Homo sapiens, UniProt P07339)
T1 construct: purchased Biolegend 556704
Test: Cathepsin D assay
Type: biochemical
Details: FIG. 22D; read-out: IC50, Cat D activity
Method: The short fluorogenic CatD substrate and Recombinant Human Cathepsin D (CatD) is available commercially (R&D Systems, ES001; Biolegend, 556704, respectively). The CatD assay buffer used was made according Biolegend's Bioassay protocol (0.1 M NaOAc, 0.2 M NaCl, pH 3.5). […] Then CatD at 20 μg/mL was diluted in CatD assay buffer to a CatD working concentration of 5 ng/μL. Compound working solutions were at 50 μM and serially diluted at 2.5% DMSO.

Structure (SMILES): CC[C@H](C)[C@H](NC(=O)[C@H](CCC(=O)O)NC(=O)[C@H](CCC(=O)O)NC(=O)[C@@H](NC(=O)[C@@H](N)CCCCN)[C@@H](C)O)C(=O)N[C@@H](CO)C(=O)N[C@@H](CCC(=O)O)C(=O)N[C@H](C(=O)N[C@@H](CC(N)=O)C(=O)N[C@@H](CC(C)C)[C@@H](O)CC(=O)N[C@H](C(=O)N[C@@H](C)C(=O)N[C@@H](CCC(=O)O)C(=O)N[C@@H](Cc1ccccc1)C(=O)O)C(C)C)C(C)C [BACE Inh 1, reference compound] (H-KTEEISEVN[Sta]VAEF-OH; N-terminus and C-terminus assumed)
- IC50: < 10 nM
